The target in experiment [1] is T1, Bcl10 (human (endogenous in NCM460)) (UniProt O95999).
T1 sequence: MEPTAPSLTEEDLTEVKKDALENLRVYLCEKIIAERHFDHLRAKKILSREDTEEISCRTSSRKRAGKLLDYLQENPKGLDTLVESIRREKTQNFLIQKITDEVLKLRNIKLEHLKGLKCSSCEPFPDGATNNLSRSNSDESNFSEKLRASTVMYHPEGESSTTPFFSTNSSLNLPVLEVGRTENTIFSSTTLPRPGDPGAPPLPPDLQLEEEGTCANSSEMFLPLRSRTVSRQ
Briefly: co-IP; endogenous proteins in lysates of NCM460 cells (control, PAF, LA-CS, PAF + LA-CS); IP with anti-Bcl10 antibody, blot with anti-MALT1; lysis buffer 20 mM Tris pH 7.5, 150 mM NaCl, 1% Triton X-100, 1 mM EDTA; 4°C, 16 h.

By UniProt entry, the sequences of proteins in these tests, tags left out.
UniProt Q9UDY8: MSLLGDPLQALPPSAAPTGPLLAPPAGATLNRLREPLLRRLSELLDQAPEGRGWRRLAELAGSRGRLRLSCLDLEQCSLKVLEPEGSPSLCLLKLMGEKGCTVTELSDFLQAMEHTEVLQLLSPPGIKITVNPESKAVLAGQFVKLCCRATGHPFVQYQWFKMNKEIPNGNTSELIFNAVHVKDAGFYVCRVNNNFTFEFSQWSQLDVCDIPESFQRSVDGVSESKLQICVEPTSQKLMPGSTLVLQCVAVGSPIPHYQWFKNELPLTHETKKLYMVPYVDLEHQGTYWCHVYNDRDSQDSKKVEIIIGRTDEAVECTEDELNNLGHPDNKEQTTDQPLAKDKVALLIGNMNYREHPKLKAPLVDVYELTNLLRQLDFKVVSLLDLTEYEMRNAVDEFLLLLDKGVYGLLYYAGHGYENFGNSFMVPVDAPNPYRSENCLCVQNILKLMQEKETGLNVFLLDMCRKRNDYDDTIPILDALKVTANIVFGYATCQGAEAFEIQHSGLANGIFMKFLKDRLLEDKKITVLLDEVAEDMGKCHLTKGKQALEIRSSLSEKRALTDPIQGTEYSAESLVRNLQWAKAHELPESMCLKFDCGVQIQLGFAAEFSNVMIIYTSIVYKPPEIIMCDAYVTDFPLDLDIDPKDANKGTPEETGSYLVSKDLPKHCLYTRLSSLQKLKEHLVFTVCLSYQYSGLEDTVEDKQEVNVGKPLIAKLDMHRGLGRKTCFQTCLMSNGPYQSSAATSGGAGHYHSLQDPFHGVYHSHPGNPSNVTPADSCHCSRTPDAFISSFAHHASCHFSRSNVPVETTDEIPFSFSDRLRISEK

The target of experiment [2] is T2, CARMA3 (human (endogenous in NCM460)) (UniProt Q9BWT7).
T2 sequence: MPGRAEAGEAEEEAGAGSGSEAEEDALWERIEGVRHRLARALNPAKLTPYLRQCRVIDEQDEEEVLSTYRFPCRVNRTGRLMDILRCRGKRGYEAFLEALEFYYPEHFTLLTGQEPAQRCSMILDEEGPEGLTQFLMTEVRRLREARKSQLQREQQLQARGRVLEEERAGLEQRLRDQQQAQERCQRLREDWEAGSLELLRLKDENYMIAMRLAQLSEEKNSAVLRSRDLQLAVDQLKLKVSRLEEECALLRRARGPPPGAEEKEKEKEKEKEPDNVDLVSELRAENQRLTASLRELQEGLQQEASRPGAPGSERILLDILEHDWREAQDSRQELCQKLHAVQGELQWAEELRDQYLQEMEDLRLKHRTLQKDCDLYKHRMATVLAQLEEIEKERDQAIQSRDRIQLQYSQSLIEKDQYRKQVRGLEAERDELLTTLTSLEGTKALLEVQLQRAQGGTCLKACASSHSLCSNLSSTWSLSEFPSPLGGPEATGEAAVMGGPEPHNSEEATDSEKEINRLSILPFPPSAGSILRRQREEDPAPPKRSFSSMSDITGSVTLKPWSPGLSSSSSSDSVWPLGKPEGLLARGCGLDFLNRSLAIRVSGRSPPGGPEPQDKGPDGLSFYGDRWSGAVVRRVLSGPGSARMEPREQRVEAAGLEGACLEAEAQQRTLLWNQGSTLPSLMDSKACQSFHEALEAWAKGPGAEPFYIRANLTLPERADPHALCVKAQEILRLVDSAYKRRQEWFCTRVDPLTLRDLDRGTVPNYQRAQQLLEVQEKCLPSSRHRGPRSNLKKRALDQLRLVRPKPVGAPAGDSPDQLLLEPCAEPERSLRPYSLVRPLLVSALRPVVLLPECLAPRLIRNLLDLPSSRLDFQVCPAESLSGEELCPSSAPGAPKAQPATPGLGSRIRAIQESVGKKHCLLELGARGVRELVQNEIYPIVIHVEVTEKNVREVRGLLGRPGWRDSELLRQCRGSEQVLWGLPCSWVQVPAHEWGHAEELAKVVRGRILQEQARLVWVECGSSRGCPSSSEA
In words: co-IP; data not shown; endogenous proteins in lysates of NCM460 cells (PAF with or without LA-CS); IP with anti-CARMA3 antibody, blot with anti-Bcl10 (methods); lysis buffer 20 mM Tris pH 7.5, 150 mM NaCl, 1% Triton X-100, 1 mM EDTA; 4°C, 16 h.

These are yes or no findings as the source states them, for the method shown. In cells and extracts the contact can be indirect. Some binding calls cover weakened binding; strength is not graded here.

On to MALT1 (from UniProt Q9UDY8 1-824), for which the binding entry in experiment [1] is “binds”.

B1: Bcl10 (protein, UniProt O95999 1-233)
chain: T1 sequence
Turning to B1, in experiment [2], the binding entry is listed as “binds”.

(Values after PMC3794005.)
